Measured values: article PMC12035900
Results are given in words; binding and its absence hold for the method and conditions named. Binding seen in cells or lysates may run through a third protein. Here binding means that the protein was enriched with, or labelled near, the bait; the list need not be complete. Where a sequence is shown, tags or fusion partners need not be part of it.

Chains of the proteins cited; added tags and fusions are not shown.
UniProt P19474: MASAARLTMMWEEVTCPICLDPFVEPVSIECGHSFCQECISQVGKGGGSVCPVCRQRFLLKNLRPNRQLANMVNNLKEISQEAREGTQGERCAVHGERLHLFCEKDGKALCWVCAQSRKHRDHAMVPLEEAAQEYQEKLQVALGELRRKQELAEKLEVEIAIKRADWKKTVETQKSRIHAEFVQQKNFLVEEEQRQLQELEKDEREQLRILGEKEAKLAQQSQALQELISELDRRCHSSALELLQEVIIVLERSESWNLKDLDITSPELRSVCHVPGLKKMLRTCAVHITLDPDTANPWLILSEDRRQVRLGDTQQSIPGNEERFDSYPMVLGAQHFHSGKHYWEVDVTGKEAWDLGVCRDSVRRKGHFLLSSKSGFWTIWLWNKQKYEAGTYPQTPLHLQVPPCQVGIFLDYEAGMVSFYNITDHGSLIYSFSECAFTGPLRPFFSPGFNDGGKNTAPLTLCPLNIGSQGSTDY
UniProt P17096: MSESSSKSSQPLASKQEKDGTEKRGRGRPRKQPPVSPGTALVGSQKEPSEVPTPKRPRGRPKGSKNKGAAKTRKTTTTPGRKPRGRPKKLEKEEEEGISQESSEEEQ

molecular target: T1, TOX conjugated with a GFP tag (thymocyte selection-associated high mobility group box) (UniProt O94900); assay: affinity purification with mass spectrometry; TOX-GFP immunoprecipitates from cell lysate, on-bead trypsin digestion, LC-MS/MS (Q-Exactive HF), label-free quantitation; called preliminary, with considerable variations between attempts
T1 sequence: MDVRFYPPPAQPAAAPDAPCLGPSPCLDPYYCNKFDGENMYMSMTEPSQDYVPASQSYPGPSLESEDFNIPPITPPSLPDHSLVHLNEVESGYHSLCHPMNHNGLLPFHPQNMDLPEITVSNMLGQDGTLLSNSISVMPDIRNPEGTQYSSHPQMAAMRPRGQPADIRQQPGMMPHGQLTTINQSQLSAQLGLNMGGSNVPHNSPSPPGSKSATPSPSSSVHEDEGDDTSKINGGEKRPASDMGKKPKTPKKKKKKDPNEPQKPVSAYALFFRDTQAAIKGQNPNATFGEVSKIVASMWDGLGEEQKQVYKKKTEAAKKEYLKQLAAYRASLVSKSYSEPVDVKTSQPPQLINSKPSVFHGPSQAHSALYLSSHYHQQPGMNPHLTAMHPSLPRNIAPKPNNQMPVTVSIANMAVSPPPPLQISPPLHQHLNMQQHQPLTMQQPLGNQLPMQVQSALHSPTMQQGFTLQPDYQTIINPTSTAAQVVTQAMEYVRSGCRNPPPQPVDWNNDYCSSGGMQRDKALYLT

Molecule | binding
TRIM21 (from UniProt P19474 1-475) | binds
High Mobility Group A1 (HMGA1) (from UniProt P17096 1-107) | binds
KCTD10 (protein, UniProt Q9H3F6 1-313) MEEMSGESVVSSAVPAAATRTTSFKGTSPSSKYVKLNVGGALYYTTMQTLTKQDTMLKAMFSGRMEVLTDSEGWILIDRCGKHFGTILNYLRDGAVPLPESRREIEELLAEAKYYLVQGLVEECQAALQNKDTYEPFCKVPVITSSKEEQKLIATSNKPAVKLLYNRSNNKYSYTSNSDDNMLKNIELFDKLSLRFNGRVLFIKDVIGDEICCWSFYGQGRKIAEVCCTSIVYATEKKQTKVEFPEARIYEETLNILLYEAQDGRGPDNALLEATGGAAGRSHHLDEDEERERIERVRRIHIKRPDDRAHLHQ | binds
FLOT1 (protein, UniProt O75955 1-427) MFFTCGPNEAMVVSGFCRSPPVMVAGGRVFVLPCIQQIQRISLNTLTLNVKSEKVYTRHGVPISVTGIAQVKIQGQNKEMLAAACQMFLGKTEAEIAHIALETLEGHQRAIMAHMTVEEIYKDRQKFSEQVFKVASSDLVNMGISVVSYTLKDIHDDQDYLHSLGKARTAQVQKDARIGEAEAKRDAGIREAKAKQEKVSAQYLSEIEMAKAQRDYELKKAAYDIEVNTRRAQADLAYQLQVAKTKQQIEEQRVQVQVVERAQQVAVQEQEIARREKELEARVRKPAEAERYKLERLAEAEKSQLIMQAEAEAASVRMRGEAEAFAIGARARAEAEQMAKKAEAFQLYQEAAQLDMLLEKLPQVAEEISGPLTSANKITLVSSGSGTMGAAKVTGEVLDILTRLPESVERLTGVSISQVNHKPLRTA | binds
FLOT2 (protein, UniProt Q14254 1-428) MGNCHTVGPNEALVVSGGCCGSDYKQYVFGGWAWAWWCISDTQRISLEIMTLQPRCEDVETAEGVALTVTGVAQVKIMTEKELLAVACEQFLGKNVQDIKNVVLQTLEGHLRSILGTLTVEQIYQDRDQFAKLVREVAAPDVGRMGIEILSFTIKDVYDKVDYLSSLGKTQTAVVQRDADIGVAEAERDAGIREAECKKEMLDVKFMADTKIADSKRAFELQKSAFSEEVNIKTAEAQLAYELQGAREQQKIRQEEIEIEVVQRKKQIAVEAQEILRTDKELIATVRRPAEAEAHRIQQIAEGEKVKQVLLAQAEAEKIRKIGEAEAAVIEAMGKAEAERMKLKAEAYQKYGDAAKMALVLEALPQIAAKIAAPLTKVDEIVVLSGDNSKVTSEVNRLLAELPASVHALTGVDLSKIPLIKKATGVQV | binds
